Assay results reported in article PMC6195628.
These are yes or no findings as the source states them, for the method shown. Binding seen in cells or lysates may run through a third protein. Some entries that bind do so weakly or less than the wild type.

By UniProt entry, the sequences of proteins in these tests, tags left out. Where a name states a change or a piece, a line headed by the entry shows the natural chain unless it says otherwise. Chains listed by the source or under a name are the forms on record and can include a tag or linker. Residues count along the entry.
3xFLAG tagged murine Notch1 intracellular domain (N1ICD) (Q01705, residues 1744-2531): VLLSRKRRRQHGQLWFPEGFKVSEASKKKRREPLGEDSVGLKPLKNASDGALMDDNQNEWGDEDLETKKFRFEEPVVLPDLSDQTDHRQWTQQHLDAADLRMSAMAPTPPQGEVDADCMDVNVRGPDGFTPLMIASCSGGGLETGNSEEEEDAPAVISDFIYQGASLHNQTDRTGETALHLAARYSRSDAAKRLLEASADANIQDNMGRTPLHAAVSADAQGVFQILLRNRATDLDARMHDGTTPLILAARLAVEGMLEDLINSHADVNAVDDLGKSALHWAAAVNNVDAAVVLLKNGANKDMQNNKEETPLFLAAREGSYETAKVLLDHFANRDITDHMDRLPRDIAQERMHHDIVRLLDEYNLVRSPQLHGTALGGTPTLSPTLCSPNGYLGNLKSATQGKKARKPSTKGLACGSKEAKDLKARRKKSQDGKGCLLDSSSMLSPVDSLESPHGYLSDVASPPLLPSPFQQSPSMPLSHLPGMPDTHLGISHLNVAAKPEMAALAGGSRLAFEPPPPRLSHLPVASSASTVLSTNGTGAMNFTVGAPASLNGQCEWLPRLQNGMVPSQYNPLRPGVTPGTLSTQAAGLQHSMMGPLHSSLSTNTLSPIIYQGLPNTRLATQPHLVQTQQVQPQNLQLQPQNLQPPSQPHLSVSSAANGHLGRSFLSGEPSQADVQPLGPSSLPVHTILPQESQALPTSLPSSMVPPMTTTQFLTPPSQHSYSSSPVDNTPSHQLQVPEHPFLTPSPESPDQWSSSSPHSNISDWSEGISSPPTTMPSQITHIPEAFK
3xFLAG N1ICD Quad mutant (Y1938F, Y2074F, Y2116F, Y2145F) (Q01705, form named): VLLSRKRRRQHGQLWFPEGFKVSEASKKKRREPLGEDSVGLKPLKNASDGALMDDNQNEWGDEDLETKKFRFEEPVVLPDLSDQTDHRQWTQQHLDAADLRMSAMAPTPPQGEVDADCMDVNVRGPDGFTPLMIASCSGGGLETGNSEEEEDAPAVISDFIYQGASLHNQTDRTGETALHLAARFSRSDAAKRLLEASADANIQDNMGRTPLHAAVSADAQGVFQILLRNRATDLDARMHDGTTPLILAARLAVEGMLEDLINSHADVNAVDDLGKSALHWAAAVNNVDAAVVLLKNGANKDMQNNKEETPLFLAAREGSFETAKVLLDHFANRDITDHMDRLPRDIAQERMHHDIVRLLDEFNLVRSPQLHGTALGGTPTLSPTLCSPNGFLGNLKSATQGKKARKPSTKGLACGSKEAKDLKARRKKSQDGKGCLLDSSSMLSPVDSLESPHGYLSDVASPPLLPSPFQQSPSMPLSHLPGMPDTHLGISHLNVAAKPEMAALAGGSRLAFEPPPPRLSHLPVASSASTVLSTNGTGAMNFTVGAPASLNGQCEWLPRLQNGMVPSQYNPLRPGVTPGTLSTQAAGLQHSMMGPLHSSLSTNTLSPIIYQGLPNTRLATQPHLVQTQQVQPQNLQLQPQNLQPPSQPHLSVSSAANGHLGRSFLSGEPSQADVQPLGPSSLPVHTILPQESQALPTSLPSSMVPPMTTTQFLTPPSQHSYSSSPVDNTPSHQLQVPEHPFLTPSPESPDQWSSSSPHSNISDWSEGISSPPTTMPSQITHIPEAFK
UniProt Q92585: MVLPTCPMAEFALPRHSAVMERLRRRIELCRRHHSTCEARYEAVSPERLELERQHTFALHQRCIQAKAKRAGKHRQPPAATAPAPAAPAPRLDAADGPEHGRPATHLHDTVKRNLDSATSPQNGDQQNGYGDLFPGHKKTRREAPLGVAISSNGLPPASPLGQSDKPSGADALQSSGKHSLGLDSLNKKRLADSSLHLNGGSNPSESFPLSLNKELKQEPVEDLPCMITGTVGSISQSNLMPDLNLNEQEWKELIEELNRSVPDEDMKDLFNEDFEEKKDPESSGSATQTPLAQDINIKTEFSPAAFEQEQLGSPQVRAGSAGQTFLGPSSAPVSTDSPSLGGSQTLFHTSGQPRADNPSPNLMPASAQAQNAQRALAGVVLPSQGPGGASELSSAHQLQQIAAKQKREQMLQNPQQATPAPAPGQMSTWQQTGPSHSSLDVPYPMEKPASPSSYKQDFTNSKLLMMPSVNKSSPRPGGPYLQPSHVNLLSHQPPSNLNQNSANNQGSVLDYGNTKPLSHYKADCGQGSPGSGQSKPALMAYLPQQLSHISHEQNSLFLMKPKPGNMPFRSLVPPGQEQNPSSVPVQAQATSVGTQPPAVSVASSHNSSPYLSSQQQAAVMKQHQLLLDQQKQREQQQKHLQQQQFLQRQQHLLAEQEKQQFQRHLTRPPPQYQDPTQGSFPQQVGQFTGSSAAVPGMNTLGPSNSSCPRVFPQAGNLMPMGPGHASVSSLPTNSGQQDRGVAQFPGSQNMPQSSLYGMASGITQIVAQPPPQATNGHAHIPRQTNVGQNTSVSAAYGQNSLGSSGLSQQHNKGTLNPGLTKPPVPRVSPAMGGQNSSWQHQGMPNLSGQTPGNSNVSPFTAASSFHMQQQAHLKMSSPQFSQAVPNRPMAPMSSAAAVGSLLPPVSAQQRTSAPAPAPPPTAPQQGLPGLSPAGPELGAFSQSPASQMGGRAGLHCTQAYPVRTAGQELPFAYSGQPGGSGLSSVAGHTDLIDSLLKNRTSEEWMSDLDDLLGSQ

Legend:
[1] = biological target: 3xFLAG N1ICD Quad mutant (Y1938F, Y2074F, Y2116F, Y2145F) (murine) (UniProt Q01705); test: co-IP; anti-FLAG affinity resin on lysates of transfected 293 T cells, overnight at 4 °C; 200 mM KCl, 25 mM Hepes, 1% NP-40, pH 7.5; blots with anti-Src or anti-MAML1; with or without overexpressed c-Src, β3 integrin or MAGP2, or SFK inhibitor AZM475271
[2] = biological target: 3xFLAG tagged murine Notch1 intracellular domain (N1ICD) (murine) (UniProt Q01705); test: as above

binding [1]: binds
binding [2]: binds
Substance: human MAML1 with a myc tag (from UniProt Q92585 1-1016)
